Changes are numbered by the printed parent chain. These are yes or no findings as the source states them, for the method shown. Binding seen in cells or lysates may run through a third protein. A yes stands for co-enrichment or nearness to the bait. Other partners may have been found. For some of these results: No binding means not detected with the bait. Sequences can lack the tags named with a protein.
Experiments:
GFP-LRMDA F145D (human) = molecular target: T1, GFP-LRMDA F145D (human); assay: affinity purification with mass spectrometry; GFP-trap from RPE1-hTERT cells stably transduced with GFP, GFP-LRMDA, GFP-LRMDA F145D or L226G; TMT proteomics (Figs 1E, 4A, 4B)
T1 sequence: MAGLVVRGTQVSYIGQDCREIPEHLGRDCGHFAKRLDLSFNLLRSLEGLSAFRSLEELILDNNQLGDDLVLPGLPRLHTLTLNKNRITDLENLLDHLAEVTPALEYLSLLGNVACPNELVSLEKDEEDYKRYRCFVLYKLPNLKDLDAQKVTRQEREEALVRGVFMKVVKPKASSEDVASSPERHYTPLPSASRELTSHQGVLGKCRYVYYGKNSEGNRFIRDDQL

GFP-LRMDA L226G (human) = molecular target: T2, GFP-LRMDA L226G (human); assay: as above
T2 sequence: T1 sequence with D145F, L226G

GFP-LRMDA (human) [1] = molecular target: T3, GFP-LRMDA (human); assay: as above
T3 sequence: T1 sequence with D145F

GFP-LRMDA (human) [2] = molecular target: T3, GFP-LRMDA (human); assay: affinity purification with mass spectrometry; GFP-trap from MNT1 cells stably transduced with GFP, GFP-LRMDA or GFP-VPS26C; TMT proteomics (Supplementary Fig. 4A, Fig. 6A)

B1: recombinant RAB32 (tag-less) (natural protein, human, UniProt Q13637 1-225, looked up)
chain: MAGGGAGDPGLGAAAAPAPETREHLFKVLVIGELGVGKTSIIKRYVHQLFSQHYRATIGVDFALKVLNWDSRTLVRLQLWDIAGQERFGNMTRVYYKEAVGAFVVFDISRSSTFEAVLKWKSDLDSKVHLPNGSPIPAVLLANKCDQNKDSSQSPSQVDQFCKEHGFAGWFETSAKDNINIEEAARFLVEKILVNHQSFPNEENDVDKIKLDQETLRAENKSQCC
notes: RAB32, human, full-length; also called purified RAB32; GST-TEV-RAB32 after TEV cleavage; source: Sf21 insect cells (baculovirus), purified (Glutathione Sepharose 4b, TEV cleavage); not shown: GST, N-terminal, cleaved
- binding (GFP-LRMDA F145D (human)): no binding
- binding (GFP-LRMDA L226G (human)): binds
- binding (GFP-LRMDA (human) [1]): binds
- binding (GFP-LRMDA (human) [2]): binds
